# Laboratory results as given in PubChem BioAssay AID720504 (National Center for Advancing Translational Sciences (NCATS), 2013).
# By UniProt entry, the sequences of proteins in these tests, tags left out.
# UniProt P53350, whole entry, looked up: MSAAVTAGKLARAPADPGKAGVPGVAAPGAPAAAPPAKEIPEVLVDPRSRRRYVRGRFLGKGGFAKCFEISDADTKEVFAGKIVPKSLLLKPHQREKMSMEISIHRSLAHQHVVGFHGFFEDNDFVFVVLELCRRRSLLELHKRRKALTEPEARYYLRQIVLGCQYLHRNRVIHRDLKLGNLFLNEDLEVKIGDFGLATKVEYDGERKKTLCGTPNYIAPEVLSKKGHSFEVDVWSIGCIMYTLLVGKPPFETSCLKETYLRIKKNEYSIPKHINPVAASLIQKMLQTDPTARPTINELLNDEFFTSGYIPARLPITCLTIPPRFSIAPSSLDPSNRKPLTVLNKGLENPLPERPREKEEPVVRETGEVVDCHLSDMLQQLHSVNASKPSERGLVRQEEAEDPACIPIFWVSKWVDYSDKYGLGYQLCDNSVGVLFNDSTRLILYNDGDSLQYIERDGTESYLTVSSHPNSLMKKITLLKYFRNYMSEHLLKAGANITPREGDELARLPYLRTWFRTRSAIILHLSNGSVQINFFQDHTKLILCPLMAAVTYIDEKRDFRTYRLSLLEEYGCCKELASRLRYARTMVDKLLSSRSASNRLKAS
# Screen size: about 360,000 compounds; about 10,000 (2.8%) were called active. Inconclusive means that the source gave no clear call. Such entries were picked first, then a sample of the others. The call rests on the fitted dose curve; in most records, active means well fitted inhibition curve with a large enough effect; inconclusive means small, poorly fitted or top-dose-only effect; inactive means flat fitted curve, though single readings scatter. A potency beside an inconclusive call is a rough fit, not a confirmed value.
# Target: Serine/threonine-protein kinase PLK1 (Homo sapiens) (UniProt P53350)
# Experiment: qHTS for Inhibitors of PLK1-PDB (polo-like kinase 1 - polo-box domain): Primary Screen; further: nearly all actives have a fitted effect of over 65% in size; on max response, negative = inhibition: series mostly up to about 57 µM
# Conditions: Plk1 PBD binding of FITC phosphopeptide, fluorescence polarization
# On the % scale 0 is the no-effect control and ±100 the full control effect; potency means the concentration at half of the fitted maximal effect.
SMILES,"max response, negative = inhibition",Potency
Cc1ccccc1NC(=O)COC(=O)Cc1cccc(C(F)(F)F)c1,inactive: -4.04%,
CC(C)c1nnc(NC(=O)C2CCN(C(=O)c3ccco3)CC2)s1,,"inconclusive: 23.8 µM [inhibitor, partial curve]"
COc1ccc(NS(=O)(=O)c2ccc(OC)c3ccccc23)cn1,,"inconclusive: 29.9 µM [inhibitor, single point]"
O=c1[nH]c(S)nc2sc3c(c12)CCCC3,,"inconclusive: 26.7 µM [inhibitor, partial curve]"
Cc1cc(C)c2nc(SC(C)C(=O)NCC(=O)Nc3ccc(F)c(F)c3F)cc(C)c2c1 (stereo not drawn),,"inconclusive: 16.8 µM [inhibitor, partial curve]"
COc1ccc(C(=O)OCC(=O)Nc2c(C)n(C)n(-c3ccccc3)c2=O)cc1OC,inactive: -0.112%,
COc1ccc(-c2cc(C(=O)Nc3nc4ccccc4s3)c3ccccc3n2)cc1OC,,"inconclusive: 33.6 µM [inhibitor, partial curve]"
CC(C)(C)OC(=O)N1Cc2ccccc2C[C@H]1C(=O)NCC(=O)NCC1CCCO1 (stereo partly drawn),,"inconclusive: 26.7 µM [inhibitor, single point]"
C=CCn1c(Cc2cccs2)nnc1SCC(=O)c1cccc(Br)c1,,"inconclusive: 21.2 µM [inhibitor, partial curve]"
O=C(CSc1nc2ccccc2n1CCc1ccccc1)N1CCOCC1,inactive: 6.25%,
Cc1nc(N)sc1-c1csc(Nc2cc(N(C)C)ccc2Cl)n1,,"inconclusive: 26.7 µM [inhibitor, single point]"
COC(=O)C(Nc1nccs1)(OC)C(F)(F)F (stereo not drawn),,"inconclusive: 26.7 µM [inhibitor, partial curve]"
Oc1c(CN2CCCCC2)cc(Br)c2cccnc12,,"inconclusive: 21.2 µM [inhibitor, partial curve]"
CCOC(=O)c1c(NC(=O)c2ccncc2)sc(C)c1C,,"inconclusive: 29.9 µM [inhibitor, partial curve]"
CCCc1cc(-c2n[nH]c(=S)n2-c2cccc(C)c2)cs1,,"inconclusive: 26.7 µM [inhibitor, single point]"
COc1ccc(C)cc1NC(=O)CSc1ccc(-c2ccco2)nn1,,"inconclusive: 23.8 µM [inhibitor, single point]"
O=C(Nc1ccc2oc(-c3ccccc3)nc2c1)c1cccs1,,"inconclusive: 26.7 µM [inhibitor, partial curve]"
COc1cccc(/C=C/c2[nH]c(=O)[nH]c(=O)c2[N+](=O)[O-])c1O,,"inconclusive: 23.8 µM [inhibitor, partial curve]"
CN1C(=O)Cc2cc(S(=O)(=O)N3CCN(c4ccccc4F)CC3)ccc21,inactive: -2.84%,
COCC(=O)Nc1cc(C)cn(Cc2c(F)cccc2Cl)c1=O,,active: 3.36 µM
Sc1oc(-c2ccccc2)cc1C=Nc1ccccc1,inactive: -8.55%,
O=C(O)Cc1ccc(N=Nc2c(O)c(C(=O)O)cc3ccccc23)cc1,,"inconclusive: 23.8 µM [inhibitor, partial curve]"
O=C(CCl)N1c2ccccc2OCC1c1ccccc1 (stereo not drawn),,"inconclusive: 8.44 µM [inhibitor, partial curve]"
O=C1/C(=C/C=C/c2ccco2)SC(=S)N1NS(=O)(=O)c1ccccc1,,active: 10.6 µM
CC(C)CNC(=O)CN1c2cccc3cccc(c23)S1(=O)=O,inactive: -2.05%,

SMILES,"max response, negative = inhibition",Potency
COc1ccccc1Nc1nc(N)nc(CN2CCCCCC2)n1,,"inconclusive: 23.8 µM [inhibitor, partial curve]"
COc1cc(NC(=O)c2ccc(COCC(F)(F)F)cc2)cc(OC)c1OC,,active: 4.74 µM
Cc1ccc(NC(=O)CSc2nnc(Cc3csc(C)n3)o2)cc1,inconclusive: -30.5% [inhibitor],
CCOC(=O)c1cc(-c2ccccc2)sc1NC(=O)C(C)C,,active: 29.9 µM
S=C(NNc1cccc(Cl)c1)NC1CCCCC1,inactive: 0%,
Cc1cc(C)c(C)c(S(=O)(=O)Nc2cccc(S(=O)(=O)Nc3ccccc3C(=O)O)c2)c1C,,"inconclusive: 37.7 µM [inhibitor, single point]"
CCOC(=O)[C@H](C)N1[C@H](C)[C@H](c2ccccc2)Oc2ccc(Cl)cc2S1(=O)=O,,"inconclusive: 37.7 µM [inhibitor, single point]"
COc1ccc(OC)c(C(=O)COC(=O)c2cccnc2Cl)c1,inactive: -9.8%,
Cc1c(OCC(=O)NC(Cc2ccc(Cl)cc2)C(=O)O)ccc2c(-c3ccccc3)cc(=O)oc12 (stereo not drawn),,active: 67 µM
CCCNS(=O)(=O)c1cccc2cccnc12,inactive: -11.9%,
CCOC(=O)c1cccc(NC(=O)CSc2nnnn2C)c1,inactive: -0.111%,
Cc1cc(C)c(N2C(=O)CC(Sc3ccccc3N)C2=O)c(C)c1 (stereo not drawn),,"inconclusive: 16.8 µM [inhibitor, partial curve]"
COc1ccccc1CNC(=O)C(=O)NCC1OCCCN1S(=O)(=O)c1ccc(F)cc1C (stereo not drawn),inactive: 1.18%,
Cc1ccc2c(c1)C(=O)C(=O)N2Cc1ccc(Cl)cc1,,"inconclusive: 15 µM [inhibitor, single point]"
CCOc1ccc(NC(=S)N(Cc2ccc(Cl)cc2)Cc2ccco2)cc1,,"inconclusive: 37.7 µM [inhibitor, single point]"
Cc1cccc2nc(CSc3ccc(Cl)cc3)cn12,,"inconclusive: 33.6 µM [inhibitor, partial curve]"
O=C1CSC(=S)N1N=Cc1c(F)cccc1Cl,,"inconclusive: 13.4 µM [inhibitor, partial curve]"
COc1cccc(C(C(=O)NC2CCCC2)N(C(=O)c2ccco2)c2ccc(NC(C)=O)cc2)c1OC (stereo not drawn),inactive: 4.45%,
CCOc1ccc(CN2CCNC(=O)C2CC(=O)NCCCOc2cccnc2)cc1 (stereo not drawn),inconclusive: -30.4% [inhibitor],
C[C@@H](NC(=O)[C@@H]1Cc2ccccc2CN1)C(=O)Nc1ccc2c(c1)OCCO2,,active: 3.36 µM
Cc1ccc(C(=O)Oc2cccnc2)cc1[N+](=O)[O-],,"inconclusive: 18.9 µM [inhibitor, partial curve]"
COc1ccccc1CC(=O)N(CCC#N)CCC#N,,"inconclusive: 26.7 µM [inhibitor, partial curve]"
CC(C)(C)C(=O)C(Cl)C(=O)Nc1ccccc1 (stereo not drawn),,active: 10.6 µM
COc1ccc(C2(O)CCN(C(=O)c3ccc4c(c3)OCO4)CC2)cc1,,"inconclusive: 26.7 µM [inhibitor, partial curve]"
O=C(COC(=O)c1cccs1)NCCC1=CCCCC1,inactive: -10.4%,

# Compounds shown so far that have a Cl atom (12):
SMILES,"max response, negative = inhibition",Potency
Cc1nc(N)sc1-c1csc(Nc2cc(N(C)C)ccc2Cl)n1,,"inconclusive: 26.7 µM [inhibitor, single point]"
COCC(=O)Nc1cc(C)cn(Cc2c(F)cccc2Cl)c1=O,,active: 3.36 µM
O=C(CCl)N1c2ccccc2OCC1c1ccccc1 (stereo not drawn),,"inconclusive: 8.44 µM [inhibitor, partial curve]"
S=C(NNc1cccc(Cl)c1)NC1CCCCC1,inactive: 0%,
CCOC(=O)[C@H](C)N1[C@H](C)[C@H](c2ccccc2)Oc2ccc(Cl)cc2S1(=O)=O,,"inconclusive: 37.7 µM [inhibitor, single point]"
COc1ccc(OC)c(C(=O)COC(=O)c2cccnc2Cl)c1,inactive: -9.8%,
Cc1c(OCC(=O)NC(Cc2ccc(Cl)cc2)C(=O)O)ccc2c(-c3ccccc3)cc(=O)oc12 (stereo not drawn),,active: 67 µM
Cc1ccc2c(c1)C(=O)C(=O)N2Cc1ccc(Cl)cc1,,"inconclusive: 15 µM [inhibitor, single point]"
CCOc1ccc(NC(=S)N(Cc2ccc(Cl)cc2)Cc2ccco2)cc1,,"inconclusive: 37.7 µM [inhibitor, single point]"
Cc1cccc2nc(CSc3ccc(Cl)cc3)cn12,,"inconclusive: 33.6 µM [inhibitor, partial curve]"
O=C1CSC(=S)N1N=Cc1c(F)cccc1Cl,,"inconclusive: 13.4 µM [inhibitor, partial curve]"
CC(C)(C)C(=O)C(Cl)C(=O)Nc1ccccc1 (stereo not drawn),,active: 10.6 µM

# Further structures follow:

SMILES,"max response, negative = inhibition",Potency
Cc1ccc(NC(=S)Nc2ccc3[nH]c(=O)[nH]c3c2)cc1,,active: 18.9 µM
CC(=O)NC(=S)NNC(=O)CCc1ccccc1,,"inconclusive: 33.6 µM [inhibitor, partial curve]"
Cc1ccc(-c2nnc(SCC#N)n2N)cc1,,"inconclusive: 21.2 µM [inhibitor, partial curve]"
CC(C)=NNc1nc(-c2ccc(N3C(=O)CCC3=O)cc2)cs1,,"inconclusive: 21.2 µM [inhibitor, single point]"
CN(C)S(=O)(=O)c1cccc(NC(=S)NNC(=O)c2cc3ccccc3cc2O)c1,,active: 23.8 µM
O=[N+]([O-])c1ccccc1/C=N/n1c(C(F)(F)F)n[nH]c1=S,,active: 26.7 µM
CCOc1ccccc1NC(=O)C(=O)N/N=C/c1ccc([N+](=O)[O-])cc1,inactive: -14.2%,
CCOC(=O)C1C(c2ccc(OC)c(OC)c2)c2c([nH][nH]c2=O)CC1(C)O (stereo not drawn),,"inconclusive: 29.9 µM [inhibitor, partial curve]"
CC(=O)Nc1ccc(-c2ccnc3c2CC(C(=O)NCC2CCOCC2)O3)cc1 (stereo not drawn),inactive: -12.8%,
CC(=O)c1ccc(NC(=S)Nc2ccc3cn[nH]c3c2)cc1,,active: 29.9 µM
O=C1c2sc3nc4c(c(=O)n3c2C(=O)N1c1ccccc1)CCC4,,active: 21.2 µM
CCc1cc(C(=O)OC)c(NC(=O)CC2Nc3cc(C)c(C)cc3NC2=O)s1 (stereo not drawn),inactive: 74.2%,
CCOc1ccc(N2C(=O)C(Cl)=C(Nc3ccccc3O)C2=O)cc1,,active: 8.44 µM
c1ccc(-c2ccccc2OCCOCCN2CCc3ccccc3C2)cc1,inactive: -2.67%,
CC(C)CC(=O)/C(=C\c1ccc(Cl)cc1Cl)n1cncn1,,"inconclusive: 26.7 µM [inhibitor, partial curve]"
CN(C)c1ccc(/C=N/N(CCC#N)C2=NS(=O)(=O)c3ccccc32)cc1,,"inconclusive: 37.7 µM [inhibitor, partial curve]"
CCOC(=O)Cc1csc(SCC(=O)Nc2sc3c(c2C(N)=O)CCC3)n1,,"inconclusive: 26.7 µM [inhibitor, partial curve]"
CCOc1cc(/C=C2\SC(N)=NC2=O)ccc1O,inactive: 10.2%,
CS(=O)(=O)N(CC(=O)N1CCN(Cc2ccccc2)CC1)C1CCCCC1,inactive: -26.3%,
O=C(O)c1ccccc1NS(=O)(=O)c1ccc(N/N=C/c2cccc(O)c2O)c([N+](=O)[O-])c1,,"inconclusive: 21.2 µM [inhibitor, partial curve]"
CCOc1ccc(NC(=O)Cn2nnc(-c3ccccc3NC(=O)c3cccs3)n2)cc1,,"inconclusive: 37.7 µM [inhibitor, single point]"
O=C1NCCN1CCNS(=O)(=O)c1ccccc1[N+](=O)[O-],,"inconclusive: 29.9 µM [inhibitor, partial curve]"
CC(=O)OC[C@@H]1CN(Cc2ccccc2)C[C@H](n2cnc3c(N4CCN(c5ccccc5)CC4)ncnc32)O1,inactive: 3.35%,

# Individual results from above:
# For Potency, CC(=O)NC(=S)NNC(=O)CCc1ccccc1 has the entry inconclusive: 33.6 µM [inhibitor, partial curve]
# For Potency, CN(C)S(=O)(=O)c1cccc(NC(=S)NNC(=O)c2cc3ccccc3cc2O)c1 has the entry active: 23.8 µM
